Tags and fusion partners may be left off the protein sequences shown. Construct, isoform or probe ends are uncertain for at least one entry.

Data set [1] relates to T1, AraQ (Bifidobacterium breve UCC2003).
T1 sequence (looked up, limits assumed): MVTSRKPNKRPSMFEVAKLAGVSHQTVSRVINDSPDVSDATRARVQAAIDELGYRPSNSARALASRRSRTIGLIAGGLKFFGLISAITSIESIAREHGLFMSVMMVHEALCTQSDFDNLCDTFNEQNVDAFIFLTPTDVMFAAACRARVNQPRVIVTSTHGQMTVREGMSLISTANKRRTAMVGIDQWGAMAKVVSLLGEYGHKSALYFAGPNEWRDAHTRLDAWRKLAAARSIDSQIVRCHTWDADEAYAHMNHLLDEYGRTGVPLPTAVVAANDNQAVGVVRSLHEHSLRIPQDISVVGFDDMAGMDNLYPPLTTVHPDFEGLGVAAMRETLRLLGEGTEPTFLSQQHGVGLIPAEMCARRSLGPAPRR
Put plainly: EMSA. The conditions noted are these: 150 nM protein, EMSA: binding buffer stock 80 mM Tris-HCl pH 8.0, 20 mM MgCl2, 2 mM DTT, 4 mM EDTA, 400 mM KCl, 40% glycerol (final dilution not stated), poly(dI-dC) 0.05 ug/ul, recombinant protein, protein details: C-terminal His10, probe letters rebuilt from the primers and the genome. On the technique in general: In EMSA bound probe runs differently from free probe, usually more slowly.

For data set [2], the system named is T2, MalR1 (Bifidobacterium breve UCC2003).
T2 sequence (looked up): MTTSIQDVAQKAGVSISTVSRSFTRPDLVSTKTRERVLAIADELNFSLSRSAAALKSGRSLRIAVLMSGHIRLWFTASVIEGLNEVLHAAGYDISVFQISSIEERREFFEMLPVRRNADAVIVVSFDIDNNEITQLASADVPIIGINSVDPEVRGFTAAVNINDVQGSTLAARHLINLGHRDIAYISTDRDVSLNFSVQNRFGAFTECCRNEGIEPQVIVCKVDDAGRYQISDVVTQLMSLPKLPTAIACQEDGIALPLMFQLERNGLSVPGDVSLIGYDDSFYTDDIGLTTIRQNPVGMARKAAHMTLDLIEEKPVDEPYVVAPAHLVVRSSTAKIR
As to the kind of experiment: EMSA. To be noted: 150 nM protein, EMSA: binding buffer stock 80 mM Tris-HCl pH 8.0, 20 mM MgCl2, 2 mM DTT, 4 mM EDTA, 400 mM KCl, 40% glycerol (final dilution not stated), poly(dI-dC) 0.05 ug/ul, recombinant protein, residues 1-338, protein details: C-terminal His10, probe letters rebuilt from the primers and the genome.

[3] abbreviates: label: 5' IRD700 (both strands).
Where [4] appears, read: label: 5' IRD700, counted as no binding.

On to “GCCGTTGTATTCGTGTGTCATCGGATATTCGCCGTCTTGGGTGAGAATGGTCACGGATTTGGCAAGTGGACGCAGCACACGGATTGTGGCGGTATCGGCATGCTTGCCAATGCCGAGATGCCCGCCAAGAACTCCGTGGGGGTTGTAGAATTCAGCATTGCTCACCGCGTCGAGGTCACTTTGGGCAACAGGCACGGTGACGGTATCTTCCTTGATCTTCGTTTCATTAGCCATGCCCCAAAGTCTACGTGCGTTGGTGTCGGAAACGCTACATTGGCGCGTCGAAAATGGCGAATTTATGCCGCTTAGAGTGTTGTCGCTTGATTGTGAGCGCTCTCATTGTCCCAGTCCAGACCATATGGCACAATTATTCGAGTTTTTGTGAGTAATCCGTCAGTTCTCGGAGGATACATGTCTTATCAAGTCGGCGATATGGTCGTCTACCCACGTCATGGTGCAGCAAAAGTGGAGGCCATCACCGAGCGGACGGTTAAGGGCGTGACGCGCGAATATCTGCAGTTGTCCGTACTTTCCTCCGACGGTCTGGTCATCAATGTGCC (double strand) [carD promoter]”, for which the binding result in data set [1] (setting [3]) and in data set [2] (setting [3]) was “binds” throughout.
Consider “GCGACGATGACGAATCCGAAACTGACCACTTTTGCCCAGCCGTTGCACGATATGGCTCAGGTGATTGCCGAAATGCTGTGTTGGCGGTTGGAGCACGGGGAATGGAACACTGTGGCACAAGTATTGCCTGCGTCACTAATCAAACGTGATAGCGTCTGATGGTATTGCCCGAATCAGCGGTTGTATTTTTTGAAATCCATGCCTGAATGCTAATCCGGCATGGATTTGTTGTTTTTCGTAGGGTGTGCTATCTTAGAACTGTTTTTGGAAACGGTTCCAAAAATAAAGGGAAGTGATGAGGCTTTCCGAATCGAGCGCAGTGATGCGGAAGGAGATAAAATGAAGAGGTCAAAGGCGATGTTTTCAGCTGTGTTAGCTGTTGCTACCGTGGTGAGCCTCGCAGCTTGCGGTACTGCTAATAATAGTGGAAACGCTACCACTAAAGATGGAAAAACGATTATCAAGATTCAAACCTTTAATAATTTTGGCTATGGTAAGCCCACCAATGAGCGCCCAAGTGC (double strand) [cldE promoter]”, for which the binding signal in data set [1] (setting [4]) came to 0 % bound. Moreover, the binding result in data set [2] (label: 5' IRD700) is “binds”.
Consider “GGCACCAATAACAGCAAGCTTCGTGGGCTTAACGGTAGTTTCCGCCATGATGGATAAACCTCTCTTCAAAGGCGGTCTGCTGATGAATGGCAGGCCTTGTAACTAACGGTTTCACTTTATAAACCCGCTAAGACGTTTCGCGGGCCACAATGCATATCCAATGATGCCATAACCCTAATGTTTTCAGCAGTTGTTAGCGCTCACAGCCATTATGTGATTTTCGTCACGTTATTTATGCGATTGATTGCTCCATGATTTGCGCAGCCAAGTGCGAATCGACATCC (double strand) [ldh2 promoter]”, for which the binding result in data set [1] (setting [3]) and in data set [2] (setting [3]) was “binds” throughout.
With “GGCTCTTGCGAACGAATGTAATCTTCCACCACAGCGCGCAGTACCAGCATGCGACGTGATTGCGTCATGCGCGCCTCCTTATATGTACATCTGCCGTATGCAATCTGCTCTCATTGTATTAGCACTCATTGGTTTCGAGTGCTAATGCGTTCGTTTGCGGCGAAGTGATGTGAATTGTGAACGCTAACAGAACACAAACTACCAAAACACGCCAAAATTGCACCATAACGTCGCAAACCATCGCTAGCATGGTAAGCGCAATGTGAGGGCGTCAAGCGCCCGGCACAAGCCGGATACGCGGCCCGACCAATTGGAAGGAAAGTAATCCATGACCGAATTCAAGGAGACCGAGC (double strand) [tkt-tal promoter]”, the binding result in data set [1] (label: 5' IRD700) and in data set [2] (label: 5' IRD700) was “binds” in each case.
Consider “GGTTGCCACGAGAATCCAGAATCTGACGTGCGTACACGCTTTCAATTGCTGCCACAACTACTCCTTAAAACGGTTGTGTATCTTGAATGACATTCATAAGAGTAGTGCGATTTGTGGACGTTGTGAACAACACGCCCAAAATTTGATGTGAGCGCTCACAATGTCGGTGTGCCGCGTGATTGCAGTCAACTTTGGAGGAAAACGCTTAGGCGCTGATTACATCATTGAGATAGTCGATTTCGCTATCGGACAATTCAAGAGTGACCGCTTTGAACGAGTCCTGAATCTCCTGTGGGTTTCTAGCGGAGGGAATCGTAAACAGATTGCCATATTGTGCAAGCTCCCAAGCAAGCGTGACACGCTGGTAGGAGCAGCCGTGATTGTCGGCGACTTCCTTG (double strand) [eno promoter]”, for which the binding result in data set [1] (label: 5' IRD700) and in data set [2] (label: 5' IRD700) was “binds” each time.
On to “TGGACATCCGGTCAGGCCTTTTGCCGTCATATGGGAGCGTCAGCGTTCATTCTCCGTTTCGAGGGGCTGATTTTGCTTCTTGGGAAGTTCTATCTCCGTTTCGAGGGGCTGGTGCCCAAGTAGAAGAGGTCCAAGAATGGCGAAATGACGGTGGCAAGAAGGCGTTTGTACTTGTGTTTCGGCGGATGACCAGCCCCTTGAAACGGAGATAGACCTCCGGAAAGGTTCAAATCAGCCCCTCGAAACTTAAATATGACGATCAAAGCGCAAATGTGAACAATGCCACATATAACTTGGTGAGTCGCTGCACGATGATTTTCGGGGCTTCTCAAGAATGGCGGAATATCAACAGAAACCCCTATATCTAGGTTTGTTGTGTGATACACGCCACTACATATAGTGCATTGATTTCAAACTACACAGATGTAATATGGCCATCGTTTCACTGTTCAACAGAGATAGATGGAGGGGAGTCGCCATGACCGTCACCGTGTTCACCAAGCCGCATTGCCCGCAATGCAACGCCACCAAGCGCCAGCTCACCAAGCTTGGTGTGCCGTTCGAGAC (double strand) [nrdH promoter]”, for which the binding result in data set [1] (label: 5' IRD700) was “binds”. Further, the binding signal in data set [2] (setting [4]) stood at 0 % bound.

(Values after article PMC6882875.)
